The subject of this data set is mSWI/SNF complexes. Briefly: mSWI/SNF complex purification with HA-tagged baits and mass spectrometry (peptide counts). Details: species or system human.
Setting [1] is: 293_HA-BRD7 bait purification, mass spectrometry, total peptides per co-purified protein.
The mark [2] stands for this setting: 293_HA-BRD7 bait purification, mass spectrometry, unique peptides per co-purified protein.

Total and Unique data for nine molecules are collected here from patent US12729225B2, “Non-canonical SWI/SNF complex and uses thereof” (Dana-Farber Cancer Institute, Inc., priority 2018, dated 2026).

B1: CSTF2 (protein, UniProt P33240 1-577, looked up)
Cleavage stimulation factor …: MAGLTVRDPAVDRSLRSVFVGNIPYEATEEQLKDIFSEVGPVVSFRLVYDRETGKPKGYGFCEYQDQETALSAMRNLNGREFSGRALRVDNAASEKNKEELKSLGTGAPVIESPYGETISPEDAPESISKAVASLPPEQMFELMKQMKLCVQNSPQEARNMLLQNPQLAYALLQAQVVMRIVDPEIALKILHRQTNIPTLIAGNPQPVHGAGPGSGSNVSMNQQNPQAPQAQSLGGMHVNGAPPLMQASMQGGVPAPGQMPAAVTGPGPGSLAPGGGMQAQVGMPGSGPVSMERGQVPMQDPRAAMQRGSLPANVPTPRGLLGDAPNDPRGGTLLSVTGEVEPRGYLGPPHQGPPMHHVPGHESRGPPPHELRGGPLPEPRPLMAEPRGPMLDQRGPPLDGRGGRDPRGIDARGMEARAMEARGLDARGLEARAMEARAMEARAMEARAMEARAMEVRGMEARGMDTRGPVPGPRGPIPSGMQGPSPINMGAVVPQGSRQVPVMQGTGMQGASIQGGSQPGGFSPGQNQVTPQDHEKAALIMQVLQLTADQIAMLPPEQRQSILILKEQIQKSTGAP
Take B1: the Total under setting [1] was 2. This molecule returned a Unique under setting [2] of 2.

B2: SRSF4 (protein, UniProt Q08170 1-494, looked up)
Serine/arginine-rich splicing …: MPRVYIGRLSYQARERDVERFFKGYGKILEVDLKNGYGFVEFDDLRDADDAVYELNGKDLCGERVIVEHARGPRRDGSYGSGRSGYGYRRSGRDKYGPPTRTEYRLIVENLSSRCSWQDLKDYMRQAGEVTYADAHKGRKNEGVIEFVSYSDMKRALEKLDGTEVNGRKIRLVEDKPGSRRRRSYSRSRSHSRSRSRSRHSRKSRSRSGSSKSSHSKSRSRSRSGSRSRSKSRSRSQSRSRSKKEKSRSPSKEKSRSRSHSAGKSRSKSKDQAEEKIQNNDNVGKPKSRSPSRHKSKSKSRSRSQERRVEEEKRGSVSRGRSQEKSLRQSRSRSRSKGGSRSRSRSRSKSKDKRKGRKRSREESRSRSRSRSKSERSRKRGSKRDSKAGSSKKKKKEDTDRSQSRSPSRSVSKEREHAKSESSQREGRGESENAGTNQETRSRSRSNSKSKPNLPSESRSRSKSASKTRSRSKSRSRSASRSPSRSRSRSHSRS
As for B2, under setting [1], the Total is reported as 2. Besides, under setting [2], the Unique is on record as 1.

B3: POSTN (protein, UniProt Q15063 22-836, looked up)
Periostin: NNHYDKILAHSRIRGRDQGPNVCALQQILGTKKKYFSTCKNWYKKSICGQKTTVLYECCPGYMRMEGMKGCPAVLPIDHVYGTLGIVGATTTQRYSDASKLREEIEGKGSFTYFAPSNEAWDNLDSDIRRGLESNVNVELLNALHSHMINKRMLTKDLKNGMIIPSMYNNLGLFINHYPNGVVTVNCARIIHGNQIATNGVVHVIDRVLTQIGTSIQDFIEAEDDLSSFRAAAITSDILEALGRDGHFTLFAPTNEAFEKLPRGVLERIMGDKVASEALMKYHILNTLQCSESIMGGAVFETLEGNTIEIGCDGDSITVNGIKMVNKKDIVTNNGVIHLIDQVLIPDSAKQVIELAGKQQTTFTDLVAQLGLASALRPDGEYTLLAPVNNAFSDDTLSMDQRLLKLILQNHILKVKVGLNELYNGQILETIGGKQLRVFVYRTAVCIENSCMEKGSKQGRNGAIHIFREIIKPAEKSLHEKLKQDKRFSTFLSLLEAADLKELLTQPGDWTLFVPTNDAFKGMTSEEKEILIRDKNALQNIILYHLTPGVFIGKGFEPGVTNILKTTQGSKIFLKEVNDTLLVNELKSKESDIMTTNGVIHVVDKLLYPADTPVGNDQLLEILNKLIKYIQIKFVRGSTFKEIPVTVYTTKIITKVVEPKIKVIEGSLQPIIKTEGPTLTKVKIEGEPEFRLIKEGETITEVIHGEPIIKKYTKIIDGVPVEITEKETREERIITGPEIKYTRISTGGGETEETLKKLLQEEVTKVTKFIEGGDGHLFEDEEIKRLLQGDTPVRKLQANKKVQGSRRRLREGRSQ
With B3, the Total was found to be 2 under setting [1] and 1 (293_HA-DPF2 purification, total peptides). The same molecule yielded a Unique under setting [2] of 1 and a Unique (293_HA-DPF2 purification, unique peptides) of 1.

B4: MPHOSPH10 (protein, UniProt O00566 1-681, looked up)
U3 small nucleolar …: MAPQVWRRRTLERCLTEVGKATGRPECFLTIQEGLASKFTSLTKVLYDFNKILENGRIHGSPLQKLVIENFDDEQIWQQLELQNEPILQYFQNAVSETINDEDISLLPESEEQEREEDGSEIEADDKEDLEDLEEEEVSDMGNDDPEMGERAENSSKSDLRKSPVFSDEDSDLDFDISKLEQQSKVQNKGQGKPREKSIVDDKFFKLSEMEAYLENIEKEEERKDDNDEEEEDIDFFEDIDSDEDEGGLFGSKKLKSGKSSRNLKYKDFFDPVESDEDITNVHDDELDSNKEDDEIAEEEAEELSISETDEDDDLQENEDNKQHKESLKRVTFALPDDAETEDTGVLNVKKNSDEVKSSFEKRQEKMNEKIASLEKELLEKKPWQLQGEVTAQKRPENSLLEETLHFDHAVRMAPVITEETTLQLEDIIKQRIRDQAWDDVVRKEKPKEDAYEYKKRLTLDHEKSKLSLAEIYEQEYIKLNQQKTAEEENPEHVEIQKMMDSLFLKLDALSNFHFIPKPPVPEIKVVSNLPAITMEEVAPVSVSDAALLAPEEIKEKNKAGDIKTAAEKTATDKKRERRKKKYQKRMKIKEKEKRRKLLEKSSVDQAGKYSKTVASEKLKQLTKTGKASFIKDEGKDKALKSSQAFFSKLQDQVKMQINDAKKTEKKKKKRQDISVHKLKL
As for B4, the Total under setting [1] is recorded as 2. The molecule also gave a Unique under setting [2] of 1.

B5: SLC25A6 (protein, UniProt P12236 1-298, looked up)
ADP/ATP translocase 3: MTEQAISFAKDFLAGGIAAAISKTAVAPIERVKLLLQVQHASKQIAADKQYKGIVDCIVRIPKEQGVLSFWRGNLANVIRYFPTQALNFAFKDKYKQIFLGGVDKHTQFWRYFAGNLASGGAAGATSLCFVYPLDFARTRLAADVGKSGTEREFRGLGDCLVKITKSDGIRGLYQGFSVSVQGIIIYRAAYFGVYDTAKGMLPDPKNTHIVVSWMIAQTVTAVAGVVSYPFDTVRRRMMMQSGRKGADIMYTGTVDCWRKIFRDEGGKAFFKGAWSNVLRGMGGAFVLVLYDELKKVI
B5 registered a Total under setting [1] of 2. Under setting [2], this molecule had a Unique of 1.

B6: WDR18 (protein, UniProt Q9BV38 1-432, looked up)
WD repeat-containing protein …: MAAPMEVAVCTDSAAPMWSCIVWELHSGANLLTYRGGQAGPRGLALLNGEYLLAAQLGKNYISAWELQRKDQLQQKIMCPGPVTCLTASPNGLYVLAGVAESIHLWEVSTGNLLVILSRHYQDVSCLQFTGDSSHFISGGKDCLVLVWSLCSVLQADPSRIPAPRHVWSHHALPITDLHCGFGGPLARVATSSLDQTVKLWEVSSGELLLSVLFDVSIMAVTMDLAEHHMFCGGSEGSIFQVDLFTWPGQRERSFHPEQDAGKVFKGHRNQVTCLSVSTDGSVLLSGSHDETVRLWDVQSKQCIRTVALKGPVTNAAILLAPVSMLSSDFRPSLPLPHFNKHLLGAEHGDEPRHGGLTLRLGLHQQGSEPSYLDRTEQLQAVLCSTMEKSVLGGQDQLRVRVTELEDEVRNLRKINRDLFDFSTRFITRPAK
With B6, the Total under setting [1] is given as 2. Besides, the Unique under setting [2] is 2.

B7: SYMPK (protein, UniProt Q92797 1-1274, looked up)
Symplekin: MASGSGDSVTRRSVASQFFTQEEGPGIDGMTTSERVVDLLNQAALITNDSKITVLKQVQELIINKDPTLLDNFLDEIIAFQADKSIEVRKFVIGFIEEACKRDIELLLKLIANLNMLLRDENVNVVKKAILTMTQLYKVALQWMVKSRVISELQEACWDMVSAMAGDIILLLDSDNDGIRTHAIKFVEGLIVTLSPRMADSEIPRRQEHDISLDRIPRDHPYIQYNVLWEEGKAALEQLLKFMVHPAISSINLTTALGSLANIARQRPMFMSEVIQAYETLHANLPPTLAKSQVSSVRKNLKLHLLSVLKHPASLEFQAQITTLLVDLGTPQAEIARNMPSSKDTRKRPRDDSDSTLKKMKLEPNLGEDDEDKDLEPGPSGTSKASAQISGQSDTDITAEFLQPLLTPDNVANLVLISMVYLPEAMPASFQAIYTPVESAGTEAQIKHLARLMATQMTAAGLGPGVEQTKQCKEEPKEEKVVKTESVLIKRRLSAQGQAISVVGSLSSMSPLEEEAPQAKRRPEPIIPVTQPRLAGAGGRKKIFRLSDVLKPLTDAQVEAMKLGAVKRILRAEKAVACSGAAQVRIKILASLVTQFNSGLKAEVLSFILEDVRARLDLAFAWLYQEYNAYLAAGASGSLDKYEDCLIRLLSGLQEKPDQKDGIFTKVVLEAPLITESALEVVRKYCEDESRTYLGMSTLRDLIFKRPSRQFQYLHVLLDLSSHEKDKVRSQALLFIKRMYEKEQLREYVEKFALNYLQLLVHPNPPSVLFGADKDTEVAAPWTEETVKQCLYLYLALLPQNHKLIHELAAVYTEAIADIKRTVLRVIEQPIRGMGMNSPELLLLVENCPKGAETLVTRCLHSLTDKVPPSPELVKRVRDLYHKRLPDVRFLIPVLNGLEKKEVIQALPKLIKLNPIVVKEVFNRLLGTQHGEGNSALSPLNPGELLIALHNIDSVKCDMKSIIKATNLCFAERNVYTSEVLAVVMQQLMEQSPLPMLLMRTVIQSLTMYPRLGGFVMNILSRLIMKQVWKYPKVWEGFIKCCQRTKPQSFQVILQLPPQQLGAVFDKCPELREPLLAHVRSFTPHQQAHIPNSIMTILEASGKQEPEAKEAPAGPLEEDDLEPLTLAPAPAPRPPQDLIGLRLAQEKALKRQLEEEQKLKPGGVGAPSSSSPSPSPSARPGPPPSEEAMDFREEGPECETPGIFISMDDDSGLTEAALLDSSLEGPLPKETAAGGLTLKEERSPQTLAPVGEDAMKTPSPAAEDAREPEAKGNS
Under setting [1], B7 registered a Total of 2. The same molecule yielded a Unique under setting [2] of 1.

B8: TMEM109 (protein)
chain: QSRRDFAPPGQQKREAPVDVLTQIGRSVRGTLDAWIGPETMHLVSESSSQVLWAISSAISVAFFALSGIAAQLLNALGLAGDYLAQGLKLSPGQVQTFLLWGAGALVVYWLLSLLLGLVLALLGRILWGLKLVIFLAGFVALMRSVPDPSTRALLLLALLILYALLSRLTGSRASGAQLEAKVRGLERQVEELRWRQRRAAKGARSVEEE
In the case of B8, under setting [1], the Total is reported as 2. Also, the Unique under setting [2] is listed as 1.

B9: MRE11A (protein, UniProt P49959 2-708, looked up)
Double-strand break repair …: STADALDDENTFKILVATDIHLGFMEKDAVRGNDTFVTLDEILRLAQENEVDFILLGGDLFHENKPSRKTLHTCLELLRKYCMGDRPVQFEILSDQSVNFGFSKFPWVNYQDGNLNISIPVFSIHGNHDDPTGADALCALDILSCAGFVNHFGRSMSVEKIDISPVLLQKGSTKIALYGLGSIPDERLYRMFVNKKVTMLRPKEDENSWFNLFVIHQNRSKHGSTNFIPEQFLDDFIDLVIWGHEHECKIAPTKNEQQLFYISQPGSSVVTSLSPGEAVKKHVGLLRIKGRKMNMHKIPLHTVRQFFMEDIVLANHPDIFNPDNPKVTQAIQSFCLEKIEEMLENAERERLGNSHQPEKPLVRLRVDYSGGFEPFSVLRFSQKFVDRVANPKDIIHFFRHREQKEKTGEEINFGKLITKPSEGTTLRVEDLVKQYFQTAEKNVQLSLLTERGMGEAVQEFVDKEEKDAIEELVKYQLEKTQRFLKERHIDALEDKIDEEVRRFRETRQKNTNEEDDEVREAMTRARALRSQSEESASAFSADDLMSIDLAEQMANDSDDSISAATNKGRGRGRGRRGGRGQNSASRGGSQRGRADTGLETSTRSRNSKTAVSASRNMSIIDAFKSTRQQPSRNVTTKNYSEVIEVDESDVEEDIFPTTSKTDQRWSSTSSSKIMSQSQVSKGVDFESSEDDDDDPFMNTSSLRRNRR
Consider B9, for which the Total under setting [1] was 2. Also, under setting [2], the Unique came out at 1.
